# Assay results reported in the supplement of paper PMC10849652.
# Sequences of proteins named here, by UniProt entry; tags and fusion partners are left off. A change or cut given only in a name is not applied to a line headed by its entry.
# UniProt Q07021: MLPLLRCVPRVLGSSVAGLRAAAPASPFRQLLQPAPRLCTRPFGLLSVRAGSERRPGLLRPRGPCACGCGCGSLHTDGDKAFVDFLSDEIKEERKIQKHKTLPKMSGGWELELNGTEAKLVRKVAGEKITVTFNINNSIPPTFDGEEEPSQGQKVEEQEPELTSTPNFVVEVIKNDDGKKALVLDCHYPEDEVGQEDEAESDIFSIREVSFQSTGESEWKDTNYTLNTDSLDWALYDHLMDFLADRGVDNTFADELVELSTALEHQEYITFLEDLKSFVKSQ
# UniProt O95873: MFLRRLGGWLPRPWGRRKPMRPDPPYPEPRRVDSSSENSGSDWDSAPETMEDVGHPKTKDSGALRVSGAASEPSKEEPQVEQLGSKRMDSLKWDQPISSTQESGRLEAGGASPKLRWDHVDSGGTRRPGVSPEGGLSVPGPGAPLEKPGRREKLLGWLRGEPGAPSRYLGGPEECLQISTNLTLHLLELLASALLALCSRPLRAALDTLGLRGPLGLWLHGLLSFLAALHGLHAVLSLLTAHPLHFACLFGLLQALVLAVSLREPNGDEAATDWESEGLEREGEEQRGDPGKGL
# UniProt Q01518, whole entry, looked up: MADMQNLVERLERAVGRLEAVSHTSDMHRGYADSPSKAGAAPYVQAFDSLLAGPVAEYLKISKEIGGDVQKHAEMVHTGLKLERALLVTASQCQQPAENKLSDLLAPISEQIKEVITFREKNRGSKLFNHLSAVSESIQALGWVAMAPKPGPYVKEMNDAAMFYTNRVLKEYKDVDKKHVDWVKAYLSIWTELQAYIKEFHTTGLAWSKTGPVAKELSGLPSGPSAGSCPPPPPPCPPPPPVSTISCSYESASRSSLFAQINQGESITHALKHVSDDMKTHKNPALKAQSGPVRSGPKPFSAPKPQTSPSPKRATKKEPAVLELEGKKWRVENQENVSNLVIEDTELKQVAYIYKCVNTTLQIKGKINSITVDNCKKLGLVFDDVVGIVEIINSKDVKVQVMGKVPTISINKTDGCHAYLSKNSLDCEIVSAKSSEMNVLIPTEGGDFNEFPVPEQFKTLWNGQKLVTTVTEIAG
# UniProt O75155: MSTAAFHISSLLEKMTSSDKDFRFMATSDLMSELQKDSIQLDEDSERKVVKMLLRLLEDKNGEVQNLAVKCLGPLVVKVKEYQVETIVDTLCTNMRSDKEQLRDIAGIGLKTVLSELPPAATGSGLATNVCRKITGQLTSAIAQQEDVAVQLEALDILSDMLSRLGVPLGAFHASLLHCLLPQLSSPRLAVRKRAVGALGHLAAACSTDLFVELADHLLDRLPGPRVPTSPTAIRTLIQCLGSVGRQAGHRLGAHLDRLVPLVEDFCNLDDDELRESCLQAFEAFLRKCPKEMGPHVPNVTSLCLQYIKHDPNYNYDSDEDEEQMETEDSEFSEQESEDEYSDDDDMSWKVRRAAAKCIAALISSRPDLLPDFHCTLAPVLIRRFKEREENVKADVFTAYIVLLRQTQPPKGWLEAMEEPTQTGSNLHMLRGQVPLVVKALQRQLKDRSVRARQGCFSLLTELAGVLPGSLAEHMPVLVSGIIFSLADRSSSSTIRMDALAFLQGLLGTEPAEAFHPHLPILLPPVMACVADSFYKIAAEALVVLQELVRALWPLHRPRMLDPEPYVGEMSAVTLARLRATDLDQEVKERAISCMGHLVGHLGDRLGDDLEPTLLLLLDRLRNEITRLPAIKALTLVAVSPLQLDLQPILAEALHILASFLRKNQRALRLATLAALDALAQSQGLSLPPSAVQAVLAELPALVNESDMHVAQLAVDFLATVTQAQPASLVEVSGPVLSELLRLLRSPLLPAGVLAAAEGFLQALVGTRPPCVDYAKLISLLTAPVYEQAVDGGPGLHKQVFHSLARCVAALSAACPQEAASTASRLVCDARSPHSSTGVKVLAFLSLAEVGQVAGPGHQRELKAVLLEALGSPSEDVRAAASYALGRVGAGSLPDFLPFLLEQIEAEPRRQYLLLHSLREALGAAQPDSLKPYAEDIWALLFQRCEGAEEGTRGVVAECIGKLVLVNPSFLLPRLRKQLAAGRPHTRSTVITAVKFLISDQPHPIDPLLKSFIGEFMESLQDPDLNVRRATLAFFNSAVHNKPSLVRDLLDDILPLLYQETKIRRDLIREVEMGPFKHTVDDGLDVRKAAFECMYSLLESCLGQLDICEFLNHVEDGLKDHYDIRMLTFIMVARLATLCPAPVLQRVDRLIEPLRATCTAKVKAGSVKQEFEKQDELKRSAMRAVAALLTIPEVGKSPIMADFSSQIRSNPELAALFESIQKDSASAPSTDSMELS
# UniProt Q96K31: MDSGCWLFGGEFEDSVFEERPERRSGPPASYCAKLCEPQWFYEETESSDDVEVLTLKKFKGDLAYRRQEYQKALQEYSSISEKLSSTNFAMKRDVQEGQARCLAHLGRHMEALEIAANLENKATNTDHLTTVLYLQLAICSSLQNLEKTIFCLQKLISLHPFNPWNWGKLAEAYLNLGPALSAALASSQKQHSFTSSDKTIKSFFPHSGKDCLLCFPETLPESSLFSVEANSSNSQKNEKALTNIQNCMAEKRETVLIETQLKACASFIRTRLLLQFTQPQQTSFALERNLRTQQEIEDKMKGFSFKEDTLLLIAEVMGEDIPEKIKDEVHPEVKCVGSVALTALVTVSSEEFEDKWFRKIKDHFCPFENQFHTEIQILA
# UniProt P07384: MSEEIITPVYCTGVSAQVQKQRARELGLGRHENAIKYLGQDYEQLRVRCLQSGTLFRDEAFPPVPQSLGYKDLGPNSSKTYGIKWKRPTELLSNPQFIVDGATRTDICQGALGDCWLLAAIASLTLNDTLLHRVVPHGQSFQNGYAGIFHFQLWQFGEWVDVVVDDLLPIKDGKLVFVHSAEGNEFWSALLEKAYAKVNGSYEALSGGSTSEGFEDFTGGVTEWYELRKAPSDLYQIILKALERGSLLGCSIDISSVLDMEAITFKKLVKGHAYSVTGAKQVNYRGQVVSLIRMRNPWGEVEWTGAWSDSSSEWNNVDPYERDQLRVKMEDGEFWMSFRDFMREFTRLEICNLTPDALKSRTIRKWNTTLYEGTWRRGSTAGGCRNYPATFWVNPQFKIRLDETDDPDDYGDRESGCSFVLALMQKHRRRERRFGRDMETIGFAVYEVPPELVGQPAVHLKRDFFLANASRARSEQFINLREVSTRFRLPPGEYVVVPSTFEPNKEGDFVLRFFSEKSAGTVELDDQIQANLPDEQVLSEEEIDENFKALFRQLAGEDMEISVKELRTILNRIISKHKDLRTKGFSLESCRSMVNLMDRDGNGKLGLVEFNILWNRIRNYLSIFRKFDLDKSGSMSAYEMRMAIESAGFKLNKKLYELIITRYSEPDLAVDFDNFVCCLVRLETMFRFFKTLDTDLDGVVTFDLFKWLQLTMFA
# UniProt Q8N5I9: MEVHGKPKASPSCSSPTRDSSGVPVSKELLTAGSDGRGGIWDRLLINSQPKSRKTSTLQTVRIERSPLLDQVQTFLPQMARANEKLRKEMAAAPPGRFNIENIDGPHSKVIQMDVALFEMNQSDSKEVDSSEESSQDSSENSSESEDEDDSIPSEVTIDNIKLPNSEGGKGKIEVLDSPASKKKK
# UniProt Q49AR2: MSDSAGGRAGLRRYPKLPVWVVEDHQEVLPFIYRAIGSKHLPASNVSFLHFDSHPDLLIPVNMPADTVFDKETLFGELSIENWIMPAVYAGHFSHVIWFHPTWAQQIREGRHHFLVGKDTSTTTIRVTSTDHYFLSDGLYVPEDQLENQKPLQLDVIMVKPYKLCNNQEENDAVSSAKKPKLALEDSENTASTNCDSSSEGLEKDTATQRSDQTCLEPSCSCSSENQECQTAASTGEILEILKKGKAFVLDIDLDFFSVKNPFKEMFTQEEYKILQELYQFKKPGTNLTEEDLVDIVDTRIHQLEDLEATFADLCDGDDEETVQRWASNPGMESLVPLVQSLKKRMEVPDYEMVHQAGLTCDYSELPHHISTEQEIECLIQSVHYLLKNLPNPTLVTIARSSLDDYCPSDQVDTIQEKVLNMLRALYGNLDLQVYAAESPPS
# UniProt Q86YS7: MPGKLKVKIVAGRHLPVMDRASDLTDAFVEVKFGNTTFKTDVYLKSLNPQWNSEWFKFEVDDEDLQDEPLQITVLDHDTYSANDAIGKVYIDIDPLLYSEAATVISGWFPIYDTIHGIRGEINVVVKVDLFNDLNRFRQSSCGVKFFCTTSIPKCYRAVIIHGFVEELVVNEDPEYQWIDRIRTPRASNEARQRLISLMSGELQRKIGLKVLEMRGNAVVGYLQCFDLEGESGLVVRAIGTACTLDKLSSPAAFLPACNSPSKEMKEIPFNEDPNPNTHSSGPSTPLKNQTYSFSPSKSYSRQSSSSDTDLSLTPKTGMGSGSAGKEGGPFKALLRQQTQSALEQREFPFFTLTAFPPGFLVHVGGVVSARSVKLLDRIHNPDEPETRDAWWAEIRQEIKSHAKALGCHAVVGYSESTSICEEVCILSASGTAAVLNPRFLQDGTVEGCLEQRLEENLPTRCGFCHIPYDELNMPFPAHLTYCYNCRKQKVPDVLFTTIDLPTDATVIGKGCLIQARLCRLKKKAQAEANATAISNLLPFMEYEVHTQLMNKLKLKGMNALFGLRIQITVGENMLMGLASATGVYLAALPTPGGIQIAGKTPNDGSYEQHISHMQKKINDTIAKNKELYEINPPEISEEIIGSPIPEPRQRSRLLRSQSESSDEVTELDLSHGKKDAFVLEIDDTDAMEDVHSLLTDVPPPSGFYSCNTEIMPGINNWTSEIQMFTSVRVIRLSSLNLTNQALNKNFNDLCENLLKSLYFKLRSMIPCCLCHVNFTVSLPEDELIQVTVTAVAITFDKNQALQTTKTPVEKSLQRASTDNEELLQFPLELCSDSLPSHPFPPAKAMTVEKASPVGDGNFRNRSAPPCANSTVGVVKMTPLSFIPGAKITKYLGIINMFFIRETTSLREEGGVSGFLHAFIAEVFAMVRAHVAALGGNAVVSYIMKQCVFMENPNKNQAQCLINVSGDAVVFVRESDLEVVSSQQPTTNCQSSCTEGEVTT
# UniProt Q9H425: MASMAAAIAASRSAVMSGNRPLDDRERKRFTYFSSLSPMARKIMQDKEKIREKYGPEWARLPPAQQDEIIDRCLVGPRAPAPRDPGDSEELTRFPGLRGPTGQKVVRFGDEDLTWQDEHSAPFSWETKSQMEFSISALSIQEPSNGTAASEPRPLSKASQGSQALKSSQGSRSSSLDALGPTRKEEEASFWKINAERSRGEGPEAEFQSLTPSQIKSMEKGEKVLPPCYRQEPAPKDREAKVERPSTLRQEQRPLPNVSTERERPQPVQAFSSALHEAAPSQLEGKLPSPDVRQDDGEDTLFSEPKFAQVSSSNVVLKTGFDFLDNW
# UniProt Q96EU7: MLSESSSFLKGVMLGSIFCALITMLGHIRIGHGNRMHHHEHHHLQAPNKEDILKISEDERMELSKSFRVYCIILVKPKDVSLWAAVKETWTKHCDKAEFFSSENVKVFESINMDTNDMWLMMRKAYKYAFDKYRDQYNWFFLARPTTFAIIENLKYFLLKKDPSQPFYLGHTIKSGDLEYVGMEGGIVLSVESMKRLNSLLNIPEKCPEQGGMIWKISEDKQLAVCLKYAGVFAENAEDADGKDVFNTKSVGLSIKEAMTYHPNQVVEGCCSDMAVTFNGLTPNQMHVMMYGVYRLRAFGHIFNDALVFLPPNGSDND
# UniProt Q9Y6W3: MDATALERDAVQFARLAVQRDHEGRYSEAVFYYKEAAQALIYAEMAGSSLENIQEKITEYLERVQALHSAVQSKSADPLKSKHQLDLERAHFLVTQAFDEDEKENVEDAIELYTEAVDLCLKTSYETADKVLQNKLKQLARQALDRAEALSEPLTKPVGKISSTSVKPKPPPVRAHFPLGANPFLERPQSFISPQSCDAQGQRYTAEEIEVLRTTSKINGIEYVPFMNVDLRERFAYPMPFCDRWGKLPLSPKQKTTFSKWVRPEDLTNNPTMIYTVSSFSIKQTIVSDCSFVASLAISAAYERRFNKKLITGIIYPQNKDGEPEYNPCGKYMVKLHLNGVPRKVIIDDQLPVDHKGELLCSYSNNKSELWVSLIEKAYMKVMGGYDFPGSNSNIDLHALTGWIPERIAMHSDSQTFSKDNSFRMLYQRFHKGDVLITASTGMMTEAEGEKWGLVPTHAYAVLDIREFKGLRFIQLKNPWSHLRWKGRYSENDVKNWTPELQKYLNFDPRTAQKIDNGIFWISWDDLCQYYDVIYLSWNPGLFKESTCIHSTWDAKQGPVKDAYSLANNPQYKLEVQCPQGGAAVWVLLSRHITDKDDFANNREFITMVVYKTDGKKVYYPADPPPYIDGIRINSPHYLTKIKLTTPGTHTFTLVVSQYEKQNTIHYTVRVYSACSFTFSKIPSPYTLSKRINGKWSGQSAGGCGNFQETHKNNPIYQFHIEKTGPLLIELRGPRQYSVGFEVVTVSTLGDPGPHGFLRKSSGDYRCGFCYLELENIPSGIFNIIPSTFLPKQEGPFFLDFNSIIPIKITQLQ
# The other results are listed elsewhere or left out.
# Compound: CC[C@@H]1C(=O)N(C)c2cnc(Nc3ccc(C(=O)N[C@H]4CC[C@H](N5CCN(CC6CC6)CC5)CC4)cc3OC)nc2N1C(C)C [volasertib]
# Assay: log2 fold change, soluble protein after heating vs DMSO (PISA); higher = thermal stabilisation; K562 cells, 10 uM, 30 min; active = over 0.2 and 3.5 SD of the protein, either way, in both replicates (recomputed)
# Summary of the method: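 K562 cells at 2×10^6 cells/mL were exposed to 10 μM compound for 30 min, then aliquots were heated for 3 min across 48°C-58°C, pooled, and extracted in PBS containing 0.5% NP-40 at 4°C. The supernatant after 21,000xg for 90 min was taken as soluble protein and measured by TMTpro 16plex LC-MS/MS with channel sums equalised. Thermal stability is reported relative to control samples, with values from duplicates. Fold changes are given on a log2 scale.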
row,Target,log2 fold change
1,C1QBP (UniProt Q07021),inactive: 0.097
2,BUB1 (UniProt O43683),inactive: 0.081
3,C6orf47 (UniProt O95873),inactive: 0.03
4,C2orf49 (UniProt Q9BVC5),inactive: 0.043
5,C17orf75 (UniProt Q9HAS0),inactive: -0.11
6,CAP1 (UniProt Q01518),inactive: 0.019
7,CAND2 (UniProt O75155),inactive: 0.009
8,C8orf76 (UniProt Q96K31),inactive: 0.109
9,CAPN1 (UniProt P07384),inactive: 0.067
10,CAPZB (UniProt P47756),inactive: -0.004
11,BTF3L4 (UniProt Q96K17),inactive: 0.041
12,C12orf45 (UniProt Q8N5I9),inactive: 0.013
13,C1GALT1 (UniProt Q9NS00),inactive: -0.098
14,C2orf69 (UniProt Q8N8R5),inactive: -0.005
15,C5orf22 (UniProt Q49AR2),inactive: -0.055
16,C2CD5 isoform 4 (UniProt Q86YS7),inactive: 0.005
17,C3orf33 (UniProt Q6P1S2),inactive: -0.05
18,C1orf198 (UniProt Q9H425),inactive: -0.097
19,CARD8 isoform 5 (UniProt Q9Y2G2),inactive: -0.173
20,C1orf131 isoform 5 (UniProt Q8NDD1),inactive: 0.274
21,C3 (UniProt P01024),inactive: 0.105
22,C1GALT1C1 (UniProt Q96EU7),inactive: -0.183
23,CAPN7 (UniProt Q9Y6W3),inactive: 0.104

# Exported tab-delimited: part of the list above.
row	Target	log2 fold change
11	BTF3L4 (UniProt Q96K17)	inactive: 0.041
12	C12orf45 (UniProt Q8N5I9)	inactive: 0.013
